Source: patent US20250296994A1 (SYSMEX, published 2025)
No constants are given. Whether binding was seen depends on the method and setting. Some binding calls cover weakened binding; strength is not graded here.

Experiments:
[1] = biological target: T1, recombinant Crtac1B fragment #4 (human) (UniProt Q9NQ79); test: antigen immobilized ELISA, hybridoma culture supernatant
T1 sequence: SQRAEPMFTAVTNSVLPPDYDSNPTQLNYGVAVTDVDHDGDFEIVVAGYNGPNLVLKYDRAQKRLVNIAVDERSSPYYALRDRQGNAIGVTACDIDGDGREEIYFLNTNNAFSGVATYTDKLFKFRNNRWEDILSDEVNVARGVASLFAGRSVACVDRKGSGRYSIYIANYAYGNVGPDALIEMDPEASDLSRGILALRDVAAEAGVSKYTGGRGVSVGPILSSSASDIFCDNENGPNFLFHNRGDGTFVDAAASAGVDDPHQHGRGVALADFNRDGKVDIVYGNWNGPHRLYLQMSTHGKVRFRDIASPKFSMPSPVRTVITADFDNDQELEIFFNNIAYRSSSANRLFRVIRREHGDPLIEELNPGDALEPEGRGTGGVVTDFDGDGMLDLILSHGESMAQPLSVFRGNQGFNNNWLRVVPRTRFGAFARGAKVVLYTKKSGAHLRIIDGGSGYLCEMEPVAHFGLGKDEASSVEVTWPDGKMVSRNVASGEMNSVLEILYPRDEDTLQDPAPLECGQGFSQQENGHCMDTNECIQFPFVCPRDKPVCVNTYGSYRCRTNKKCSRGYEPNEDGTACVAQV

[2] = biological target: T2, recombinant Crtac1B fragment #1 (human) (UniProt Q9NQ79); test: as above
T2 sequence: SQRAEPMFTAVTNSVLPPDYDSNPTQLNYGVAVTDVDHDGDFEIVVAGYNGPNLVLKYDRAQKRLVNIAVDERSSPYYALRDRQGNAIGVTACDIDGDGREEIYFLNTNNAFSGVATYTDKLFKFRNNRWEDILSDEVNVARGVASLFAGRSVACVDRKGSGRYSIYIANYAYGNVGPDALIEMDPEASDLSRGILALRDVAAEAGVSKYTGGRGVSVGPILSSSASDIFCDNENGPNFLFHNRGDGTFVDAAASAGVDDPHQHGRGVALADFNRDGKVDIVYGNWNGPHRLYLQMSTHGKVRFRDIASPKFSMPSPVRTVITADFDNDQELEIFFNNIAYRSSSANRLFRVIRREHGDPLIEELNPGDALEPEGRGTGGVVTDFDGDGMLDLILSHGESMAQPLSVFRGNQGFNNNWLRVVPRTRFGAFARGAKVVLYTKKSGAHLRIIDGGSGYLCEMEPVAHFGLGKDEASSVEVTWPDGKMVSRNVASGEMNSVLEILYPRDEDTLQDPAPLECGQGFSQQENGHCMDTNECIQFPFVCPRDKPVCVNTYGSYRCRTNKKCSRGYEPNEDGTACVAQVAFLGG

[3] = biological target: T3, recombinant Crtac1B fragment #2 (human) (UniProt Q9NQ79); test: as above
T3 sequence: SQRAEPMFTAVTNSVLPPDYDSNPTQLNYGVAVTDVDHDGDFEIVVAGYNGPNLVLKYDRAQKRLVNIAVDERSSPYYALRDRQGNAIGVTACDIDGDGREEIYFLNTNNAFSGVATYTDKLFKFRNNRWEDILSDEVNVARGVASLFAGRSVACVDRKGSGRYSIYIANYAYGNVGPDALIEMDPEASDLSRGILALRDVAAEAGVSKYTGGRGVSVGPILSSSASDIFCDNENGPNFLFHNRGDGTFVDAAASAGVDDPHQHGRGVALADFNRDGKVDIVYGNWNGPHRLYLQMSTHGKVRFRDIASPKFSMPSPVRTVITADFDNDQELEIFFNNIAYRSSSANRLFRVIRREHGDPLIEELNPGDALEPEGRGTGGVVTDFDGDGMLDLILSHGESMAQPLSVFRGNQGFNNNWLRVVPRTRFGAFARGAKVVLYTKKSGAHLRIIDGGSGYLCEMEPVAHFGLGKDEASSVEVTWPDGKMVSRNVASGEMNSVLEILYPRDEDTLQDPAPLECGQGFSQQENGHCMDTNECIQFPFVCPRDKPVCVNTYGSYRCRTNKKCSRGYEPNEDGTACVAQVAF

[4] = biological target: T4, recombinant Crtac1B fragment #3 (human) (UniProt Q9NQ79); test: as above
T4 sequence: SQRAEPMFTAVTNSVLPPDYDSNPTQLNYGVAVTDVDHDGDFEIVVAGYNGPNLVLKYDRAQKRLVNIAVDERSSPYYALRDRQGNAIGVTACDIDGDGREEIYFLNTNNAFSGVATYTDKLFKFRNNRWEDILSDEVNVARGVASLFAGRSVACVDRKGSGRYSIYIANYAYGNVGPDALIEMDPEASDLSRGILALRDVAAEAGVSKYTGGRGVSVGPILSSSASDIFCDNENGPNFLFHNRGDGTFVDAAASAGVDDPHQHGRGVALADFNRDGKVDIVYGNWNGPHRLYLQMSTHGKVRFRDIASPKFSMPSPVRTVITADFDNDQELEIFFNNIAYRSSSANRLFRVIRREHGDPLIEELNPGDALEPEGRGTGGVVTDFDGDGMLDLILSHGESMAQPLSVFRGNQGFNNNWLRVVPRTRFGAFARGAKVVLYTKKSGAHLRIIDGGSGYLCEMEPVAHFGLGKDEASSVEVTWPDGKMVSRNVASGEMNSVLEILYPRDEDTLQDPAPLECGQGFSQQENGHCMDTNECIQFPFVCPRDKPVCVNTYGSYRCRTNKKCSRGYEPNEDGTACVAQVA

[5] = biological target: T5, human Crtac1B (cartilage acidic protein 1B), full length (human) (UniProt Q9NQ79); test: immunoprecipitation from human CSF and serum on protein G magnetic particles, then immunoblotting (Wes)
T5 sequence: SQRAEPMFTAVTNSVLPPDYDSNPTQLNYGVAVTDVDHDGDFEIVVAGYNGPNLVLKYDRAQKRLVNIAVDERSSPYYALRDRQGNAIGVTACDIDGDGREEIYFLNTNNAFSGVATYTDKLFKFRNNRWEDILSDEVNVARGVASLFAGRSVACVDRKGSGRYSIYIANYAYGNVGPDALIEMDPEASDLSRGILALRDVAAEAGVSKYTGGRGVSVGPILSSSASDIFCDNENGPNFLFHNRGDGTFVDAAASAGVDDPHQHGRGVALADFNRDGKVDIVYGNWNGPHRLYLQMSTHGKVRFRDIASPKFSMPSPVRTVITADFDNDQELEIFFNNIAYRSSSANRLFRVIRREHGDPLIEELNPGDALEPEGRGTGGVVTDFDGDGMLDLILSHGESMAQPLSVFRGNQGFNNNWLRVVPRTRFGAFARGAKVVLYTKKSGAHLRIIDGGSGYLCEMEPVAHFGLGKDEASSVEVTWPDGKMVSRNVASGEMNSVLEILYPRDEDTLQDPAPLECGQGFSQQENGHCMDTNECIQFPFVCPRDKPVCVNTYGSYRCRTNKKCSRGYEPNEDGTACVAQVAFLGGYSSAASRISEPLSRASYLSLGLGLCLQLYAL

Measured: binding

B1: monoclonal antibody derived from the hybridoma of clone 1B4 (antibody, mouse IgG1, kappa, V domains shown)
VH: EVQLQQFGAELVKPGASVKISCKASGYTFTDYNMDWVKQSHGKSLEWIGDINPNYDSSSYNQKFKGKATLTVDKSSSTAYMELRSLTSEDTAVYYCTRSGGTYWGQGTLVTVSA
VL: DIQMNQSPSSLSASLGDTITITCHASQNINVWLSWYQQKPGNIPKLLIYKASNLHTGVPSRFSGSGSGTGFSLTISSLQPEDIATYYCQQAQSYPRTFGGGTKLEIKR
notes: It is kept apart because the two clones were tested separately; Mouse IgG1; Leader ranges were derived as for m1
binds: all assays above
